PubChem BioAssay AID1259425, University of Nebraska Medical Center, 2018

Purpose: 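Seek colon cancer weak points whose silencing resembles KSR1 loss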 (primary screen)
Cell system: HCT116 human colon cancer cells
Knock-down reagent: siRNA pool against human genes, 50 nM siRNA
Detection: 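After 50 nM siRNA pool, branched-DNA assay measures six marker transcripts per well, minus blank, normalised to the geometric mean of two housekeeping transcripts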
Direction: BNIP3L mRNA: higher = more BNIP3L transcript after knockdown; NDRG1 mRNA: higher = more NDRG1 transcript after knockdown; BNIP3 mRNA: higher = more BNIP3 transcript after knockdown
The deposit covers about 14,000 reagents; below is a random part of them. Further read-outs or replicates are left out here. The record does not give: the time to read-out.

Target gene	BNIP3L mRNA, set 1	NDRG1 mRNA, set 1	BNIP3 mRNA, set 1
VPS72 (GeneID 6944)	0.0863	0.163	0.479
MED29 (GeneID 55588)	0.069	0.172	0.264
OXSM (GeneID 54995)	0.0733	0.0897	0.346
MAGEA5P (GeneID 4104)	0.13	0.249	0.405
NPVF (GeneID 64111)	0.326	0.364	0.596
CSTF2T (GeneID 23283)	0.114	0.545	0.339
COASY (GeneID 80347)	0.339	0.146	0.357
PODXL (GeneID 5420)	0.141	0.103	0.247
URGCP (GeneID 55665)	0.0507	0.141	0.296
ZMAT1 (GeneID 84460)	0.0554	0.247	0.258
RFC3 (GeneID 5983)	0.12	0.4	0.349
RSAD1 (GeneID 55316)	0.168	0.435	0.293
CCDC59 (GeneID 29080)	0.125	0.369	0.166
SERINC1 (GeneID 57515)	0.122	0.212	0.324
GH1 (GeneID 2688)	0.116	0.222	0.304
DHTKD1 (GeneID 55526)	0.144	0.522	0.331
DCK (GeneID 1633)	0.0608	0.126	0.226
FAM234A (GeneID 83986)	0.318	0.348	0.353
MTERF2 (GeneID 80298)	0.256	0.176	0.367
CRKL (GeneID 1399)	0.0454	0.432	0.343
CD84 (GeneID 8832)	0.107	0.144	0.26
GTF3C3 (GeneID 9330)	0.223	0.0705	0.351
MTM1 (GeneID 4534)	0.0948	0.355	0.224
VPS37C (GeneID 55048)	0.195	0.216	0.324
CAMKV (GeneID 79012)	0.133	0.373	0.198
BHMT2 (GeneID 23743)	0.0751	0.242	0.462
INTS8 (GeneID 55656)	0.13	0.895	0.542
IPO9 (GeneID 55705)	0.164	0.372	0.379
CHD9 (GeneID 80205)	0.044	0.115	0.337
MTERF1 (GeneID 7978)	0.173	0.486	0.343

Laid out differently: entries from further up
MAGEA5P (GeneID 4104) — BNIP3L mRNA, set 1 = 0.13; NDRG1 mRNA, set 1 = 0.249; BNIP3 mRNA, set 1 = 0.405
NPVF (GeneID 64111) — BNIP3L mRNA, set 1 = 0.326; NDRG1 mRNA, set 1 = 0.364; BNIP3 mRNA, set 1 = 0.596
CSTF2T (GeneID 23283) — BNIP3L mRNA, set 1 = 0.114; NDRG1 mRNA, set 1 = 0.545; BNIP3 mRNA, set 1 = 0.339
COASY (GeneID 80347) — BNIP3L mRNA, set 1 = 0.339; NDRG1 mRNA, set 1 = 0.146; BNIP3 mRNA, set 1 = 0.357
PODXL (GeneID 5420) — BNIP3L mRNA, set 1 = 0.141; NDRG1 mRNA, set 1 = 0.103; BNIP3 mRNA, set 1 = 0.247
URGCP (GeneID 55665) — BNIP3L mRNA, set 1 = 0.0507; NDRG1 mRNA, set 1 = 0.141; BNIP3 mRNA, set 1 = 0.296
ZMAT1 (GeneID 84460) — BNIP3L mRNA, set 1 = 0.0554; NDRG1 mRNA, set 1 = 0.247; BNIP3 mRNA, set 1 = 0.258
RFC3 (GeneID 5983) — BNIP3L mRNA, set 1 = 0.12; NDRG1 mRNA, set 1 = 0.4; BNIP3 mRNA, set 1 = 0.349
RSAD1 (GeneID 55316) — BNIP3L mRNA, set 1 = 0.168; NDRG1 mRNA, set 1 = 0.435; BNIP3 mRNA, set 1 = 0.293

The list goes on:
Target gene	BNIP3L mRNA, set 1	NDRG1 mRNA, set 1	BNIP3 mRNA, set 1
SERPING1 (GeneID 710)	0.106	1.42	0.26
GALK2 (GeneID 2585)	0.108	0.241	0.438
N4BP2L1 (GeneID 90634)	0.104	0.148	0.286
MESD (GeneID 23184)	0.0829	1.57	0.262
ZNF695 (GeneID 57116)	0.0756	0.16	0.284
SLC8A1 (GeneID 6546)	0.109	0.148	0.398
RYR3 (GeneID 6263)	0.117	0.561	0.325
SNX24 (GeneID 28966)	0.0723	0.0943	0.247
KLHL15 (GeneID 80311)	0.0937	0.23	0.441
CCN5 (GeneID 8839)	0.0486	0.308	0.256
CCDC7 (GeneID 79741)	0.135	0.286	0.393
ARMC6 (GeneID 93436)	0.0795	0.114	0.226
KCNJ1 (GeneID 3758)	0.135	0.146	0.189
UBE2A (GeneID 7319)	0.0988	0.151	0.332
EBF2 (GeneID 64641)	0.139	0.21	0.398
ZNF333 (GeneID 84449)	0.102	0.169	0.233
GNA11 (GeneID 2767)	0.247	0.178	0.524
ACY3 (GeneID 91703)	0.159	0.366	0.517
FAM222B (GeneID 55731)	0.0656	0.293	0.258
ATP5MJ (GeneID 9556)	0.165	0.228	0.311
ZMPSTE24 (GeneID 10269)	0.0864	0.238	0.214
TATDN2 (GeneID 9797)	0.0778	0.213	0.278
SLC27A2 (GeneID 11001)	0.139	0.113	0.355
CYLC2 (GeneID 1539)	0.0786	0.0687	0.208
CRIPTO (GeneID 6997)	0.113	0.14	0.219
ECHDC3 (GeneID 79746)	0.143	0.0892	0.385
B4GAT1 (GeneID 11041)	0.0826	0.0669	0.255
LMOD1 (GeneID 25802)	0.131	0.165	0.251
DNAJC22 (GeneID 79962)	0.139	0.138	0.393
CREB3 (GeneID 10488)	0.0845	0.0785	0.26
MYO1A (GeneID 4640)	0.101	0.279	0.196
GHRHR (GeneID 2692)	0.12	0.469	0.363
TRAK1 (GeneID 22906)	0.186	0.529	0.4
